Test results from the supplement of paper PMC5949888.
Most values lie at the floor of the assay. Slopes are relative: functional sequences can read slightly below zero.

System: Saccharomyces cerevisiae PS128 hsf1 delta, HSF1(1-493) fusion
Assay: growth estimate (transactivation domain function in HSF1 fusion, heat-shock survival) (a.u. (slope of normalised read count over time)); higher = stronger growth at 37°C, i.e. more transactivation activity
Settings: library: random library

Q: Which growth estimate does the source give for TTSKAKSACIEQPKPPKTSV here?
A: < -0.25

Q: Which growth estimate does the source give for TTSSVKSPSERITLFASLLL here?
A: -0.248

Q: How did the growth estimate turn out when TTST was run?
A: < -0.25

Q: How did the growth estimate turn out when TTTEQLQ was run?
A: < -0.25

Q: Which growth estimate does the source give for TTTPSLGYRPARTIQRPREH here?
A: < -0.25

Q: With TTVHAALLYKLRTTLQDSAS as the substance, how does the growth estimate read?
A: < -0.25

Q: How did the growth estimate turn out when TTVRARTTTDYYATVPFAS was run?
A: < -0.25

Q: Which growth estimate does the source give for TTYTTLWQIDLSVAVLRLGN here?
A: < -0.25

Q: How did the growth estimate turn out when TVAFVSLLSHG was run?
A: < -0.25

Q: For TVAYVAFLLQAVHGMSQELQ, which growth estimate is on record?
A: < -0.25

Q: TVDGFLWFAILYCT was tested. Which growth estimate did it give?
A: < -0.25

Q: How did the growth estimate turn out when TVEAPQCNDYDEVARAYLGR was run?
A: < -0.25

Q: How did the growth estimate turn out when TVEGVRGG was run?
A: < -0.25

Q: With TVEPTRRCYRLFY as the substance, how does the growth estimate read?
A: < -0.25

Q: How did the growth estimate turn out when TVFGGGPRQYQCVTGIPTTR was run?
A: < -0.25

Q: For TVFLMTHEG, which growth estimate is on record?
A: < -0.25

Q: Which growth estimate does the source give for TVGEAWI here?
A: < -0.25

Q: How did the growth estimate turn out when TVGSFPGDAADSDARAHR was run?
A: < -0.25

Q: TVGSLVQAKSGVGIRIALHS was tested. Which growth estimate did it give?
A: < -0.25

Q: With TVGYM as the substance, how does the growth estimate read?
A: < -0.25

Q: TVHTVRGPRIGWTFSKL was tested. Which growth estimate did it give?
A: < -0.25

Q: For TVIAGSAKSTGAR, which growth estimate is on record?
A: < -0.25

Q: With TVIDSLLRLVTMEDFLNKAG as the substance, how does the growth estimate read?
A: -0.0917

Q: With TVIFQTL as the substance, how does the growth estimate read?
A: < -0.25

Q: With TVIRASFWAVRPTNALPAGK as the substance, how does the growth estimate read?
A: < -0.25

Q: With TVKGSFVE as the substance, how does the growth estimate read?
A: < -0.25

Q: Which growth estimate does the source give for TVKRGCAGTYGSPILGGPST here?
A: < -0.25

Q: TVLGIRSRY was tested. Which growth estimate did it give?
A: < -0.25

Q: Which growth estimate does the source give for TVM here?
A: < -0.25

Q: How did the growth estimate turn out when TVMLHGQRLDPGYGRRSDVY was run?
A: < -0.25

Q: How did the growth estimate turn out when TVNSRAQFWSDMID was run?
A: < -0.25

Q: Which growth estimate does the source give for TVPELT here?
A: < -0.25

Q: For TVPPPSVVL, which growth estimate is on record?
A: < -0.25

Q: With TVPRAQAPRSVDLRSNGPTP as the substance, how does the growth estimate read?
A: < -0.25

Q: For TVPRKTKKKAAEEISGRGPR, which growth estimate is on record?
A: < -0.25

Q: For TVR, which growth estimate is on record?
A: < -0.25

Q: How did the growth estimate turn out when TVRKNRCRHSLRAKSVRSAR was run?
A: < -0.25

Q: How did the growth estimate turn out when TVRKSRTRVDTSIGQLITSR was run?
A: < -0.25

Q: For TVRSEL, which growth estimate is on record?
A: < -0.25

Q: TVSEDQGCIDIRALPRGWRL was tested. Which growth estimate did it give?
A: < -0.25

Q: With TVSINDWCGYVYDLDFCVLH as the substance, how does the growth estimate read?
A: < -0.25

Q: TVSR was tested. Which growth estimate did it give?
A: < -0.25

Q: With TVSRLRARDQGRGGSALAPT as the substance, how does the growth estimate read?
A: < -0.25

Q: How did the growth estimate turn out when TVTASIRAL was run?
A: < -0.25

Q: TVTEFNHPRVLIEASFKAEN was tested. Which growth estimate did it give?
A: < -0.25

Q: For TVTICRATSPGLVKNPLPRV, which growth estimate is on record?
A: < -0.25

Q: For TVVVEHAQSLGGIRPV, which growth estimate is on record?
A: < -0.25

Q: How did the growth estimate turn out when TVWNAVTSHA was run?
A: < -0.25

Q: How did the growth estimate turn out when TVY was run?
A: -0.243

Q: TWCCLEFIPVTGTLVATSPE was tested. Which growth estimate did it give?
A: < -0.25

Q: How did the growth estimate turn out when TWDDQSVTGSGQIKLYSSAF was run?
A: < -0.25

Q: With TWDTWATRSGSLA as the substance, how does the growth estimate read?
A: -0.246

Q: With TWEALAKRVCLWRPWWTTCQ as the substance, how does the growth estimate read?
A: < -0.25

Q: TWGQTWIPL was tested. Which growth estimate did it give?
A: -0.11

Q: With TWGRGEPLAGATGIIM as the substance, how does the growth estimate read?
A: < -0.25

Q: TWKMRLRCVRVARPHTVSHA was tested. Which growth estimate did it give?
A: < -0.25

Q: With TWMLWVT as the substance, how does the growth estimate read?
A: < -0.25

Q: For TWNRMVCLSTQRGTAC, which growth estimate is on record?
A: < -0.25

Q: With TWPLA as the substance, how does the growth estimate read?
A: -0.231

Q: How did the growth estimate turn out when TWQKGVNSTSIAAAGFGKAD was run?
A: < -0.25

Q: For TWSR, which growth estimate is on record?
A: < -0.25

Q: How did the growth estimate turn out when TWTYLILDCPYVLFQYYRVK was run?
A: < -0.25

Q: Which growth estimate does the source give for TWTYRYQYIERLRALEAPMH here?
A: < -0.25

Q: How did the growth estimate turn out when TWVLR was run?
A: < -0.25

Q: Which growth estimate does the source give for TWWTRCHRCNESEHSPASRS here?
A: < -0.25

Q: For TYCLRQMPVFSTDSGSASGC, which growth estimate is on record?
A: < -0.25

Q: TYCSLR was tested. Which growth estimate did it give?
A: < -0.25

Q: Which growth estimate does the source give for TYDGVSRVGTQTSTLWKIER here?
A: < -0.25

Q: Which growth estimate does the source give for TYEKTQ here?
A: < -0.25

Q: Which growth estimate does the source give for TYESGC here?
A: < -0.25

Q: How did the growth estimate turn out when TYFSLRGRWVRLGWICTISA was run?
A: < -0.25

Q: With TYHVGALARTASSLPSEVPT as the substance, how does the growth estimate read?
A: < -0.25

Q: How did the growth estimate turn out when TYI was run?
A: < -0.25

Q: Which growth estimate does the source give for TYLCGTKISESKDGVHASPH here?
A: < -0.25

Q: How did the growth estimate turn out when TYLDDSRRTTGLGHVV was run?
A: < -0.25

Q: Which growth estimate does the source give for TYLTQRCMSGQVGYA here?
A: < -0.25

Q: With TYPANACGFILLNINEPVLR as the substance, how does the growth estimate read?
A: < -0.25

Q: Which growth estimate does the source give for TYQLEGGVLRILQK here?
A: < -0.25

Q: TYQMPQLGPIVVPFRVHNSR was tested. Which growth estimate did it give?
A: < -0.25

Q: How did the growth estimate turn out when TYRPSVRGSSWEGVSNLHRL was run?
A: < -0.25

Q: With TYSSADRLGCTSSIGVT as the substance, how does the growth estimate read?
A: < -0.25

Q: TYV was tested. Which growth estimate did it give?
A: < -0.25

Q: For TYVHKLYRDSGSMEQRHPEL, which growth estimate is on record?
A: < -0.25

Q: For TYWQLMCCSSALMPVVNHCH, which growth estimate is on record?
A: 0.0328

Q: For TYWTTRYSHLAFV, which growth estimate is on record?
A: < -0.25

Q: How did the growth estimate turn out when VACLGTGTLRAQAFCYRTYA was run?
A: < -0.25

Q: For VADRTNENRSVTYNSVVSWP, which growth estimate is on record?
A: < -0.25

Q: How did the growth estimate turn out when VADVDPPARKLGILSGLD was run?
A: < -0.25

Q: For VAERELV, which growth estimate is on record?
A: < -0.25

Q: With VAEVRKVDSPVRVERVDKSS as the substance, how does the growth estimate read?
A: < -0.25

Q: Which growth estimate does the source give for VAFAGSEPS here?
A: -0.243

Q: How did the growth estimate turn out when VAFRG was run?
A: < -0.25

Q: With VAGIGQGFAREIIDA as the substance, how does the growth estimate read?
A: < -0.25

Q: For VAGSIQVLAT, which growth estimate is on record?
A: < -0.25

Q: How did the growth estimate turn out when VAGVFGSSA was run?
A: < -0.25

Q: Which growth estimate does the source give for VAIRVRGSLGVENSGSPRSS here?
A: < -0.25

Q: For VAKRIGRRGNRDGSWVGLRR, which growth estimate is on record?
A: < -0.25

Q: How did the growth estimate turn out when VALAQGARTGEWTTGVTSRC was run?
A: < -0.25

Q: How did the growth estimate turn out when VALLHLFGALELRGLSSLQS was run?
A: < -0.25

Q: Which growth estimate does the source give for VANPWVGAGVHVSNYSGDKS here?
A: < -0.25

Q: VAPIYVMSANSVIE was tested. Which growth estimate did it give?
A: < -0.25

Q: How did the growth estimate turn out when VAPVCRPRHLVCEPSLLSSG was run?
A: < -0.25

Q: For VAQLRCSVAF, which growth estimate is on record?
A: < -0.25

Q: VAQM was tested. Which growth estimate did it give?
A: < -0.25

Q: VARPAGLLRRYRGGCATQTN was tested. Which growth estimate did it give?
A: < -0.25

Q: With VARRDTPFVGPKGLTILVPI as the substance, how does the growth estimate read?
A: < -0.25

Q: For VARSSFACVSMYTRPLNDCY, which growth estimate is on record?
A: < -0.25

Q: VASMTSRGRTNVGLGSATLL was tested. Which growth estimate did it give?
A: < -0.25

Q: With VASNTEHPRLGPGRNIRHLG as the substance, how does the growth estimate read?
A: < -0.25

Q: Which growth estimate does the source give for VATANTYVFYSRLPCADAWF here?
A: < -0.25

Q: VAVKITL was tested. Which growth estimate did it give?
A: < -0.25

Q: For VAVRRPN, which growth estimate is on record?
A: < -0.25

Q: With VAWRRARRRKLEISSYMSAI as the substance, how does the growth estimate read?
A: < -0.25

Q: With VCEPSGDANWLNGAHGFGS as the substance, how does the growth estimate read?
A: 0.936

Q: With VCFLMGIGASDIAGPSFRIS as the substance, how does the growth estimate read?
A: < -0.25

Q: For VCFTLPAMEFIS, which growth estimate is on record?
A: < -0.25

Q: How did the growth estimate turn out when VCGNK was run?
A: < -0.25

Q: Which growth estimate does the source give for VCGPGFKAISGIVDNNKIRT here?
A: < -0.25

Q: VCGRQSEELGTSKLWTGNVS was tested. Which growth estimate did it give?
A: < -0.25

Q: With VCGYEDQPQWIPVAKEMTAR as the substance, how does the growth estimate read?
A: < -0.25

Q: For VCHWITGSGSNGGVCVQM, which growth estimate is on record?
A: < -0.25

Q: VCHWSPRR was tested. Which growth estimate did it give?
A: < -0.25

Q: VCIRYITIAAHKRE was tested. Which growth estimate did it give?
A: < -0.25

Q: With VCLSRLGIFGNRSSNSSSSS as the substance, how does the growth estimate read?
A: < -0.25

Q: Which growth estimate does the source give for VCLTF here?
A: < -0.25

Q: Which growth estimate does the source give for VCLTKGDVGRDISRIWAWRG here?
A: < -0.25

Q: With VCNGETRVLLRVAS as the substance, how does the growth estimate read?
A: < -0.25

Q: VCQIRN was tested. Which growth estimate did it give?
A: < -0.25

Q: Which growth estimate does the source give for VCR here?
A: < -0.25

Q: Which growth estimate does the source give for VCSPFFPLASSNSRGM here?
A: < -0.25

Q: VCSQLGLSIGSASQNRLLFS was tested. Which growth estimate did it give?
A: < -0.25

Q: VCSTP was tested. Which growth estimate did it give?
A: < -0.25

Q: Which growth estimate does the source give for VCWPPITQTFSGPRST here?
A: < -0.25

Q: For VCYWGFRVVNLALKPD, which growth estimate is on record?
A: < -0.25

Q: For VDCFQPPTYSIGSLSGAACG, which growth estimate is on record?
A: < -0.25

Q: For VDDASWVFSQGPNFIACRSM, which growth estimate is on record?
A: < -0.25

Q: VDDSSGPAQRRPVSRALVLS was tested. Which growth estimate did it give?
A: < -0.25

Q: For VDEMA, which growth estimate is on record?
A: < -0.25

Q: VDFITMLTRVVVSKPTHWML was tested. Which growth estimate did it give?
A: < -0.25

Q: For VDFLPGYARRGKGLVIDPRY, which growth estimate is on record?
A: < -0.25

Q: For VDFNPDRSVDNSLRSPDSPC, which growth estimate is on record?
A: < -0.25

Q: VDFSTKSRRVGFFVRIHTR was tested. Which growth estimate did it give?
A: < -0.25

Q: How did the growth estimate turn out when VDHPTTKVRAWRDHPHWATR was run?
A: < -0.25
